From US12171806B2 (priority 2021, dated 2024)

Assay: general procedure: Fmoc solid-phase peptide synthesis; Rink amide resin; DIC/HBt; DIC/Oxyma for lactam formation
Settings: whole synthesis, analytical HPLC/MS

## pemvidutide
  final HPLC purity: >94%
